{"source": "PubChem BioAssay AID504784 (Drosophila RNAi Screening Center, 2011)", "aim": "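Fly genes whose silencing alters how much lipid cells keep in droplets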 (primary screen)", "cells": "Drosophila Kc167 embryonic cells", "knock-down reagent": "long dsRNA against Drosophila genes, about 250 ng dsRNA per well", "time to read-out": "4 days", "conditions": "cells fed 400 µM oleic acid bound to BSA", "measurement": "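Microscope images give a droplet-to-nucleus area ratio, taken as log and converted to a screen-wide B-score; higher values mean greater lipid storage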", "reading the numbers": "droplet/nuclear area B-score: higher = more stored lipid (overstorage)", "note": "In all, the deposit lists about 17,000 reagents; this is a random part of those that have a named target and a result. 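Each column is one replicate's B-score; the combined score over replicates was not deposited, so single values may mislead.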 The numbers tell different reagents against one gene apart. Names joined by + are all predicted targets of the reagent. Further read-outs or replicates are left out here. Reagent sequences are not shown."}
{"predicted target": "LPCAT", "reagent no.": 1, "droplet/nuclear area B-score, replicate 1": -0.18}
{"predicted target": "LPCAT", "reagent no.": 2, "droplet/nuclear area B-score, replicate 1": -0.206}
{"predicted target": "Tsp29Fb", "reagent no.": 1, "droplet/nuclear area B-score, replicate 1": -0.404}
{"predicted target": "Ac78C", "reagent no.": 1, "droplet/nuclear area B-score, replicate 1": 3.76}
{"predicted target": "Ac78C", "reagent no.": 2, "droplet/nuclear area B-score, replicate 1": 1.59}
{"predicted target": "Ac78C", "reagent no.": 3, "droplet/nuclear area B-score, replicate 1": 1.79}
{"predicted target": "mEFTu2", "reagent no.": 1, "droplet/nuclear area B-score, replicate 1": 0.503}
{"predicted target": "casp", "reagent no.": 1, "droplet/nuclear area B-score, replicate 1": -0.595}
{"predicted target": "CG16813", "reagent no.": 1, "droplet/nuclear area B-score, replicate 1": -1.19}
{"predicted target": "vsg", "reagent no.": 1, "droplet/nuclear area B-score, replicate 1": 0.545}
{"predicted target": "IFT57", "reagent no.": 1, "droplet/nuclear area B-score, replicate 1": -1.08}
{"predicted target": "CHOp24", "reagent no.": 1, "droplet/nuclear area B-score, replicate 1": -0.819}
{"predicted target": "CG30151", "reagent no.": 1, "droplet/nuclear area B-score, replicate 1": 1.31}
{"predicted target": "Coq4 + frc", "reagent no.": 1, "droplet/nuclear area B-score, replicate 1": -0.795}
{"predicted target": "Coq4 + frc", "reagent no.": 2, "droplet/nuclear area B-score, replicate 1": 1.82}
{"predicted target": "CG31909", "reagent no.": 1, "droplet/nuclear area B-score, replicate 1": -0.673}
{"predicted target": "Lrp4", "reagent no.": 1, "droplet/nuclear area B-score, replicate 1": -1.88}
{"predicted target": "achi", "reagent no.": 1, "droplet/nuclear area B-score, replicate 1": 0.0309}
{"predicted target": "Mal-A4", "reagent no.": 1, "droplet/nuclear area B-score, replicate 1": -0.117}
{"predicted target": "KaiR1D", "reagent no.": 1, "droplet/nuclear area B-score, replicate 1": 0.345}
{"predicted target": "CG12698", "reagent no.": 1, "droplet/nuclear area B-score, replicate 1": -0.279}
{"predicted target": "Tnpo-SR", "reagent no.": 1, "droplet/nuclear area B-score, replicate 1": -2.42}

Already shown: 3 of the entries above.
{"predicted target": "Coq4 + frc", "reagent no.": 1, "droplet/nuclear area B-score, replicate 1": -0.795}
{"predicted target": "Coq4 + frc", "reagent no.": 2, "droplet/nuclear area B-score, replicate 1": 1.82}
{"predicted target": "CG31909", "reagent no.": 1, "droplet/nuclear area B-score, replicate 1": -0.673}

The list goes on.
{"predicted target": "CG7950 + Rpp14a", "reagent no.": 1, "droplet/nuclear area B-score, replicate 1": 0.608}
{"predicted target": "ex", "reagent no.": 1, "droplet/nuclear area B-score, replicate 1": -0.0183}
{"predicted target": "pnut", "reagent no.": 1, "droplet/nuclear area B-score, replicate 1": 0.0953}
{"predicted target": "Elp4", "reagent no.": 1, "droplet/nuclear area B-score, replicate 1": 0.978}
{"predicted target": "CG9698", "reagent no.": 1, "droplet/nuclear area B-score, replicate 1": 0.879}
{"predicted target": "CG40198", "reagent no.": 1, "droplet/nuclear area B-score, replicate 1": 0.0515}
{"predicted target": "Dscam1", "reagent no.": 1, "droplet/nuclear area B-score, replicate 1": 0.547}
{"predicted target": "Dscam1", "reagent no.": 2, "droplet/nuclear area B-score, replicate 1": 0.213}
{"predicted target": "Dscam1", "reagent no.": 3, "droplet/nuclear area B-score, replicate 1": -0.836}
{"predicted target": "CG12926", "reagent no.": 1, "droplet/nuclear area B-score, replicate 1": 1.03}
{"predicted target": "CG12926", "reagent no.": 2, "droplet/nuclear area B-score, replicate 1": 4.42}
{"predicted target": "Dtwd2 + Obp84a", "reagent no.": 1, "droplet/nuclear area B-score, replicate 1": 0.275}
{"predicted target": "abd-A", "reagent no.": 1, "droplet/nuclear area B-score, replicate 1": -0.632}
{"predicted target": "abd-A", "reagent no.": 2, "droplet/nuclear area B-score, replicate 1": -2.33}
{"predicted target": "abd-A", "reagent no.": 3, "droplet/nuclear area B-score, replicate 1": 0.778}
{"predicted target": "CG14445", "reagent no.": 1, "droplet/nuclear area B-score, replicate 1": -1.23}
{"predicted target": "CG3906", "reagent no.": 1, "droplet/nuclear area B-score, replicate 1": -0.167}
{"predicted target": "CG5746", "reagent no.": 1, "droplet/nuclear area B-score, replicate 1": 0.817}
